For four substances, binding results are on record in PMC9381590.

Amino acid sequences for entries named in this document (tags omitted). A change or cut given only in a name is not applied to a line headed by its entry. Chains listed by the source or under a name are the forms on record and can include a tag or linker.
UniProt Q13838: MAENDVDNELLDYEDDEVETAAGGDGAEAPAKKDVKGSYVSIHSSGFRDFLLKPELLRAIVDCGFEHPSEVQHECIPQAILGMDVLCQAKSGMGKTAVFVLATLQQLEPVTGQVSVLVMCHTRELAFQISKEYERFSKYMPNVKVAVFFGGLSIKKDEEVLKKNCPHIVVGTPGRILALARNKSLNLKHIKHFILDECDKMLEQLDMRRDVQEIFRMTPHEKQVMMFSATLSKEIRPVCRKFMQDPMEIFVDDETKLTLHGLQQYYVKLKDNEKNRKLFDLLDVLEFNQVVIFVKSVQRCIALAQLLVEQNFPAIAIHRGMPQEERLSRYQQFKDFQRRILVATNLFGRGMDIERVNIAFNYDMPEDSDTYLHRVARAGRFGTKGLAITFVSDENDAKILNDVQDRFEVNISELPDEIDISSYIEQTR
UniProt P14618: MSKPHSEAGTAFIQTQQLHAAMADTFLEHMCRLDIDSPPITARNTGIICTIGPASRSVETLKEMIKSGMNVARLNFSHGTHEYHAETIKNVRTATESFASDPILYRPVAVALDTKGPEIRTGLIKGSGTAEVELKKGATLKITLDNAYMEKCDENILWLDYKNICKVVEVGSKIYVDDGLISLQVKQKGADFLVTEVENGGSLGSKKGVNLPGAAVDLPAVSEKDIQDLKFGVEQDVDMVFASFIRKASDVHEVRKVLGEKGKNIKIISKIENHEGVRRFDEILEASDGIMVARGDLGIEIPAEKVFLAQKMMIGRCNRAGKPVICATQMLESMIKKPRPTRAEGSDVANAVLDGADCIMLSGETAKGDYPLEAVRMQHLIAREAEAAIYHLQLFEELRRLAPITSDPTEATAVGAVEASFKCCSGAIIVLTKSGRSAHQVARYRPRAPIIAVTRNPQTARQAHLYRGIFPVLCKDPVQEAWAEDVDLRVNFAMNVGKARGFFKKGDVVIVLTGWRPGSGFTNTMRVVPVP
PKM1 (P14618-2, form named): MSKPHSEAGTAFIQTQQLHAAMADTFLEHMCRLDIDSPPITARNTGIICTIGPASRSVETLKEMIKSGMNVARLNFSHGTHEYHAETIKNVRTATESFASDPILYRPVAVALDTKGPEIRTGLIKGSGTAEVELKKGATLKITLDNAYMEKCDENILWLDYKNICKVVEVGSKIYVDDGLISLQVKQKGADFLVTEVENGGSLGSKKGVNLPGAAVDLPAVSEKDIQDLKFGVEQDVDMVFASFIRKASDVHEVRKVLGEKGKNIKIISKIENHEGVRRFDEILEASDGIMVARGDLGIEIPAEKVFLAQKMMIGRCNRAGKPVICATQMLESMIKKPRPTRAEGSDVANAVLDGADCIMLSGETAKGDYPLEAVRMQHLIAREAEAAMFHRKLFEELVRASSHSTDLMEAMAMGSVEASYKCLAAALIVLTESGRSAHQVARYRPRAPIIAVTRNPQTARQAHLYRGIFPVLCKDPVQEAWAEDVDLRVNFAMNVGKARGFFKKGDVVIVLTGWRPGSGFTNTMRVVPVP
UniProt P04406: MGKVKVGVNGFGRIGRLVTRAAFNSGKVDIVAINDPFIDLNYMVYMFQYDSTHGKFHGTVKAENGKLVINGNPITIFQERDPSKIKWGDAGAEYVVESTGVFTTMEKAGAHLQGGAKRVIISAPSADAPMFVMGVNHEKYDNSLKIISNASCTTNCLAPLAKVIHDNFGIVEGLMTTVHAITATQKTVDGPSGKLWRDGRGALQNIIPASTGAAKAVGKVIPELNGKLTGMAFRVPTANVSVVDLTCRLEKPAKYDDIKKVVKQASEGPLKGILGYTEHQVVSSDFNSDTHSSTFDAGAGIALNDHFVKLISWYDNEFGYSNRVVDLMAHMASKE
UniProt Q9UNE7: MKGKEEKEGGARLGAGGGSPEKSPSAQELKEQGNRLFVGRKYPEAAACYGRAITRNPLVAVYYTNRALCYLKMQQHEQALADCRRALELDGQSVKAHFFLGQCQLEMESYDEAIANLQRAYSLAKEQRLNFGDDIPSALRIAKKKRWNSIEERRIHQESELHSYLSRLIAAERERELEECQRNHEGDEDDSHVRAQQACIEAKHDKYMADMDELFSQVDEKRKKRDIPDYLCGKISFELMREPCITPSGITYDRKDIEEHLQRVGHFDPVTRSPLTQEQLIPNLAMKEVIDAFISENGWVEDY

Test [1] concerns the target endogenous DDX39B (human (endogenous in CRC cells)) (UniProt Q13838). As to the kind of experiment: co-IP; endogenous proteins immunoprecipitated from CRC cell lysates; for some pairs cells stably expressing mock or DDX39B, or treated with 150 ng/ml EGF.
The target in test [2] is endogenous PKM2 (human (endogenous in CRC cells)) (UniProt P14618). Described as above.
Test [3] has as its target endogenous DDX39B (human (endogenous in CRC cells)) (UniProt Q13838). The test is described as follows: co-IP; immunoprecipitation showing the pair in both the cytoplasm and the nucleus (Supplementary Fig. 6c); methods not shown.

Results are given in words; binding and its absence hold for the method and conditions named. Binding seen in cells or lysates may run through a third protein. Some entries that bind do so weakly or less than the wild type.

Take PKM1 (from UniProt P14618-2 1-531): the binding entry in test [1] is on record as “binds”.
With GAPDH (from UniProt P04406 1-335), in test [1], the binding result is “binds”.
In the case of “endogenous STUB1 (from UniProt Q9UNE7 1-303)”, the binding entry in test [2] is reported as “binds”.
Consider “endogenous PKM2 (from UniProt P14618 1-531)”, for which the binding entry in test [3] and in test [1] was “binds” in each case.
